From PMC6180485, “Elongation/Termination Factor Exchange Mediated by PP1 Phosphatase Orchestrates Transcription Termination” (Cell Reports, 2018)
These are yes or no findings as the source states them, for the method shown. For some assays here: In cells and extracts the contact can be indirect. Some binding calls cover weakened binding; strength is not graded here. Where a sequence is shown, tags or fusion partners need not be part of it.

By UniProt entry, the sequences of proteins in these tests, tags left out.
UniProt P36594: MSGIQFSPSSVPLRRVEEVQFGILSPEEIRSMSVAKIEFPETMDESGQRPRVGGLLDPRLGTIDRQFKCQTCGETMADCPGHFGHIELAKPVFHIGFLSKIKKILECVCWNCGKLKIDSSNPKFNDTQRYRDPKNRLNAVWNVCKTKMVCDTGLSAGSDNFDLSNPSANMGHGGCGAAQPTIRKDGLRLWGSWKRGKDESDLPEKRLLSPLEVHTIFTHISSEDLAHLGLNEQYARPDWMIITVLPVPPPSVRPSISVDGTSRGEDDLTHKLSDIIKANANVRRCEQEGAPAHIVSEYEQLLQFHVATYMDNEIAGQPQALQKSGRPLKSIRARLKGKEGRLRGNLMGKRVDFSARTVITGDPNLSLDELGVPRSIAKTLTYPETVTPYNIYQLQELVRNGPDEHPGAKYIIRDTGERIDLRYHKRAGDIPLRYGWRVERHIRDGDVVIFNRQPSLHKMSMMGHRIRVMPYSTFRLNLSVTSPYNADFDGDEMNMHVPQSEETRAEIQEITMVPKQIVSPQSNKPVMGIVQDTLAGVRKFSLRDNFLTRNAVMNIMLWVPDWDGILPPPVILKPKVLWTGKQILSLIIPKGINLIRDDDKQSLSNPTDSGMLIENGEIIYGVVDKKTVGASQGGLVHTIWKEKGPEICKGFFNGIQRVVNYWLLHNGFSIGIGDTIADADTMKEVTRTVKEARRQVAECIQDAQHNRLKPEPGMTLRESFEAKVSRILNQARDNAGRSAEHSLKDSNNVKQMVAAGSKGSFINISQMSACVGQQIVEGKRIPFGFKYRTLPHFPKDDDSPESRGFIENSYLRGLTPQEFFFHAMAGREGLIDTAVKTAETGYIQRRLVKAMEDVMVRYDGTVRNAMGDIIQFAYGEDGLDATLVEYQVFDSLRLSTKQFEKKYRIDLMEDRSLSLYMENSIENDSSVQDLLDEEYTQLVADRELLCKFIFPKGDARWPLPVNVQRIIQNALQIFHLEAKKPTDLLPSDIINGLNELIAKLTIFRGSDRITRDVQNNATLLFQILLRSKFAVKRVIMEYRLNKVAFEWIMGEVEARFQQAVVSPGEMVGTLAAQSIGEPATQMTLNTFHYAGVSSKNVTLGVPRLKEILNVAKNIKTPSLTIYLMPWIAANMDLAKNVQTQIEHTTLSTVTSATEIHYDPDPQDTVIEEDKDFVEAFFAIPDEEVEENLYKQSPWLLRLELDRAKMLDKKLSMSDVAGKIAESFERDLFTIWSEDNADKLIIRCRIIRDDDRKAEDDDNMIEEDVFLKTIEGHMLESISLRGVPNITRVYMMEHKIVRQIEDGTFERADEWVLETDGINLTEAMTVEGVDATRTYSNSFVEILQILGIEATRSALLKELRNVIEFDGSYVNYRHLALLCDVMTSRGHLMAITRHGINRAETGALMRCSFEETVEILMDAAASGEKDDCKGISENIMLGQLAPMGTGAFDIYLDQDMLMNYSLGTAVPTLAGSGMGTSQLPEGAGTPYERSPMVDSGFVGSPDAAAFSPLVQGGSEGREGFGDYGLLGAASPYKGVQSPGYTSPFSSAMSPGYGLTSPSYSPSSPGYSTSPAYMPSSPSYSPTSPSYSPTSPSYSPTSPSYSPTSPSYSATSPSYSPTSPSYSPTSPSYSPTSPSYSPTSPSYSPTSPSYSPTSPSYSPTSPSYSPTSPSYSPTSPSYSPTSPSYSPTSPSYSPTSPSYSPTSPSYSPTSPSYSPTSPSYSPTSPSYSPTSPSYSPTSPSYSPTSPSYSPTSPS

T1: Flagged-Rpb9 (S. pombe) (UniProt O74635)
T1 sequence: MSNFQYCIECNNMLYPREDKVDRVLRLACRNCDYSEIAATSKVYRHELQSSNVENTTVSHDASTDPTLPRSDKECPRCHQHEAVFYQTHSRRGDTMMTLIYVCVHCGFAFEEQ

T2: Spt5 with N-terminal His8-tag and thioredoxin (S. pombe) (UniProt O13936)
T2 sequence: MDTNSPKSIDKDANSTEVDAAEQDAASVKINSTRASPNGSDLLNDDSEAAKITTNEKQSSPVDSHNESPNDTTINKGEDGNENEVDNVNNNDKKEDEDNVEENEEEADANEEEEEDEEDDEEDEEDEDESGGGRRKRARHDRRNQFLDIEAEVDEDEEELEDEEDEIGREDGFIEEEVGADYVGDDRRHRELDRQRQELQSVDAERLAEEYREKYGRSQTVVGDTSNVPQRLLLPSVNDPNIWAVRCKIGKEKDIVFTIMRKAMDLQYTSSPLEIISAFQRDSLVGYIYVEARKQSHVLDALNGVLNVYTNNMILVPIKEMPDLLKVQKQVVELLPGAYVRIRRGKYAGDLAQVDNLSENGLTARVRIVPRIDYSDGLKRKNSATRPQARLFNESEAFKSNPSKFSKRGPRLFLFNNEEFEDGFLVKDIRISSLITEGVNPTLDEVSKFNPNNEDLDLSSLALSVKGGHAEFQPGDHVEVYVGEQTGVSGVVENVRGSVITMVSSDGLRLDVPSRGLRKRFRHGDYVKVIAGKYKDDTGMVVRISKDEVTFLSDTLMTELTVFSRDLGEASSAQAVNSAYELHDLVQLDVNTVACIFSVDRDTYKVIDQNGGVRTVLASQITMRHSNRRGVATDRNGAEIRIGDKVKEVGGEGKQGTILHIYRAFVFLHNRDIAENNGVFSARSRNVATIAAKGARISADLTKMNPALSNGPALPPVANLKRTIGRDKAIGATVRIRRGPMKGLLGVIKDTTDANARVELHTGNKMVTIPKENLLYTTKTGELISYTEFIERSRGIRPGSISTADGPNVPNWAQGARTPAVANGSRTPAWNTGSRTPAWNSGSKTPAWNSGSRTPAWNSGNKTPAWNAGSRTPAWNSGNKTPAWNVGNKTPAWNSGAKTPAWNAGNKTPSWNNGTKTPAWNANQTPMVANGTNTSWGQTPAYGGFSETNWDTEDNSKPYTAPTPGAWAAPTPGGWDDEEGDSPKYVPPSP


Assays:
Flagged-Rpb9 (S. pombe) = target: T1, Flagged-Rpb9 (S. pombe); assay: co-IP; Rpb9-Flag bound to anti-Flag M2 agarose from S. pombe lysate, washed with 1 M NaCl and 1 M urea, eluted with Flag peptide; Rpb1 CTD detected by western blot
[1] = target: T2, Spt5 with N-terminal His8-tag and thioredoxin (S. pombe); assay: co-purification; Spt4 co-expressed with His8-thioredoxin-Spt5 in E. coli; Ni-NTA (wash with 1 M NaCl, 1 M urea), Q HP ion exchange, Superdex 200 gel filtration; SDS-PAGE

Row | binding (Flagged-Rpb9 (S. pombe)) | binding [1] | Molecule
1 | binds | – | Rpb1, subunit of S. pombe Pol II (from UniProt P36594 1-1752)
2 | – | binds | Spt4 (protein, UniProt Q9P7K8 1-105) MDKLNRTRSRACLICGIVLPHSVFANKGCPNDGVDDVETFTSPVFEGIMAMMSPTESWVARWQRIDTFTPGIYATRVQGVLNEDVVESLRRRGINYRPRNGTSWD
